How the values were obtained:
rat sciatic nerve = assay: Sciatic nerve compound action potential; conditions: 1mM
[1] = test system: mice (acetic-acid induced abdominal constriction); conditions: cited from earlier work

Row | Compound | peak-to-peak area ratio (PAR) of A and C fibers, tonic stimulation (rat sciatic nerve; 0.2 Hz) | ratio between last and first CAP (Δf), phasic stimulation (rat sciatic nerve; 40 Hz, p<0.001) [%] | ED50 in the writhing model [1] [mg/kg]
1 | CCN(CC)CC(=O)Nc1c(C)cccc1C [lidocaine, Lidocaine] | significantly decreased the PAR value | 38.5 | 
2 | COc1ccc2cc([C@H](C)C(=O)O)ccc2c1 [naproxen] |  |  | 13
